This is an account of results in the supplement of paper PMC10849652.

By UniProt entry, the sequences of proteins in these tests, tags left out. Where a name states a change or a piece, a line headed by the entry shows the natural chain unless it says otherwise.
UniProt P28799: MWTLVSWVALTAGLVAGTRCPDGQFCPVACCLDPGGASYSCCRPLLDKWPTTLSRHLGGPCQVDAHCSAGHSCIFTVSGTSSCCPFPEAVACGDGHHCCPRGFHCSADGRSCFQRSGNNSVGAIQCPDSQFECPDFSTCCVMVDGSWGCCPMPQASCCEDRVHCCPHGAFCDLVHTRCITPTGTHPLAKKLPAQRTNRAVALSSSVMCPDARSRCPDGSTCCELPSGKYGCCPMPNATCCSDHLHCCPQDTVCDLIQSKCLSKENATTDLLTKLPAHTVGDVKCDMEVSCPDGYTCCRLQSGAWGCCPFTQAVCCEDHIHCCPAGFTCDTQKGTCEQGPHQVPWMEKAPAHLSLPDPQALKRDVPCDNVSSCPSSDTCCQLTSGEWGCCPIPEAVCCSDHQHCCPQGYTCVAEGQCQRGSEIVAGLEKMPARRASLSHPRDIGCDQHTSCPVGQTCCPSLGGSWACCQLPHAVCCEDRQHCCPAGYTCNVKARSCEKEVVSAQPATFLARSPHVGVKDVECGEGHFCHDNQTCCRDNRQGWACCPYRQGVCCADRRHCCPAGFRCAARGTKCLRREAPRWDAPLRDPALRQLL
UniProt Q8N335: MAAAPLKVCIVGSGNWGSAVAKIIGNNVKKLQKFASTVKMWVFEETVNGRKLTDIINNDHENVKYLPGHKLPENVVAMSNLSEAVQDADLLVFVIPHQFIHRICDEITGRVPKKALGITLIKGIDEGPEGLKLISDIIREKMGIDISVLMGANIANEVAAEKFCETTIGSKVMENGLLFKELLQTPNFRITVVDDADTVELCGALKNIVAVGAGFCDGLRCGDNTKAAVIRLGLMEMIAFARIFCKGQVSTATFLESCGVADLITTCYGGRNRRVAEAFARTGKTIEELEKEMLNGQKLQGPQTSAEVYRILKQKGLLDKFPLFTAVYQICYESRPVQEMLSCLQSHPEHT
UniProt Q9UKJ3: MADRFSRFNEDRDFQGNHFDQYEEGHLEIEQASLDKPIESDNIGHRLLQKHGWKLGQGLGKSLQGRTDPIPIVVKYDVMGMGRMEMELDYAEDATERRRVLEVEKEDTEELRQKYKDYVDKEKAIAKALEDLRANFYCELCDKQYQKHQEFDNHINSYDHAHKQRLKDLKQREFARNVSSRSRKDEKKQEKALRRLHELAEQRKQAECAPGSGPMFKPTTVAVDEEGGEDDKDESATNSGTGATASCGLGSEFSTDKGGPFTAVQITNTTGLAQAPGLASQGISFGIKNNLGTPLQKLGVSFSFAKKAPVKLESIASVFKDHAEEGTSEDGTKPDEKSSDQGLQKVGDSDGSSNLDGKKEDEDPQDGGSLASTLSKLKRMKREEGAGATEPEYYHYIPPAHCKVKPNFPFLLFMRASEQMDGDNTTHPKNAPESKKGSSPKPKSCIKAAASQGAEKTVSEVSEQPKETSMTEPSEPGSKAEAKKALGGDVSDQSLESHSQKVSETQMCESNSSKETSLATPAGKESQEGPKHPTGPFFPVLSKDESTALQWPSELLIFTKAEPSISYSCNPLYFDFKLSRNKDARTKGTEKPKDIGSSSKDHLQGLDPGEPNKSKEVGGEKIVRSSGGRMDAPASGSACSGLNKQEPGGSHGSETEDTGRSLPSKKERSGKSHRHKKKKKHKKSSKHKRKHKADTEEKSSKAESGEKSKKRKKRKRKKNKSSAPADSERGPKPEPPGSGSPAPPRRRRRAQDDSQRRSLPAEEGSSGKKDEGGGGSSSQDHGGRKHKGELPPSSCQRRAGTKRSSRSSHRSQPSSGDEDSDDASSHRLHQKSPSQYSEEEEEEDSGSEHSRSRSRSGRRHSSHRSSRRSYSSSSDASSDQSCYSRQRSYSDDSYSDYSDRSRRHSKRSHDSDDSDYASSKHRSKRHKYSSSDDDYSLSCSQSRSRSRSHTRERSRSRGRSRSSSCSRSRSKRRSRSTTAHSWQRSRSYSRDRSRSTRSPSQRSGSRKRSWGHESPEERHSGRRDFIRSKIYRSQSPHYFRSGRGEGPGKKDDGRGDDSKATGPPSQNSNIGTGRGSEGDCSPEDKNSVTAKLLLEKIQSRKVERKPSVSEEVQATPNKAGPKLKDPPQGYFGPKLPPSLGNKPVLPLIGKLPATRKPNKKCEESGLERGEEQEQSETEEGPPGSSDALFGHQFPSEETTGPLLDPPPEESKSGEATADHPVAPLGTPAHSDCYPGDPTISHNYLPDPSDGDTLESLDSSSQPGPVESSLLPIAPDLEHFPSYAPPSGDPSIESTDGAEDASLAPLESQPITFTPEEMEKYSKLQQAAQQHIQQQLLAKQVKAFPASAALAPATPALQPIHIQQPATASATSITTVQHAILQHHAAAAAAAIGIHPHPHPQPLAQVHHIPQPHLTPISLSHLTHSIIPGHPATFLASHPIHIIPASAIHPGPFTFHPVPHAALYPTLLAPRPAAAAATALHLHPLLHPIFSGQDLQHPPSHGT
UniProt P43304: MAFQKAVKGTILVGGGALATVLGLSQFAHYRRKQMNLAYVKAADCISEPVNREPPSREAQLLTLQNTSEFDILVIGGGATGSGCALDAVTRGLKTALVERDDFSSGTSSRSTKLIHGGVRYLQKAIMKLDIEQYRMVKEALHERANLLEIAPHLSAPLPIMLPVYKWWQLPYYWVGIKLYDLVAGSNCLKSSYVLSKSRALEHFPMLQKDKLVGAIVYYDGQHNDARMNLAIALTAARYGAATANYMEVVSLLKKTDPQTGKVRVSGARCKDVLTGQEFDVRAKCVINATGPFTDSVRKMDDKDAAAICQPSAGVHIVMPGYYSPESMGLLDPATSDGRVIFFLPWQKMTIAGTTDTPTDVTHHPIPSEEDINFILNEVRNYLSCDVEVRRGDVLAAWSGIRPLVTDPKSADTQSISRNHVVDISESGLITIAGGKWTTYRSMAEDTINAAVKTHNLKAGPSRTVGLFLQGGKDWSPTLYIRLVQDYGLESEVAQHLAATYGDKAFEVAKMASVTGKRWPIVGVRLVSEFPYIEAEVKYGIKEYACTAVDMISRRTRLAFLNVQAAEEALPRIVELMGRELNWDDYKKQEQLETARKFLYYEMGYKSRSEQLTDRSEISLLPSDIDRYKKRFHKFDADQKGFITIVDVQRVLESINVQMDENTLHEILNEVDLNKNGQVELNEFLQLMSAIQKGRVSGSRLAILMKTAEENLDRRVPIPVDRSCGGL
UniProt Q8TDQ7: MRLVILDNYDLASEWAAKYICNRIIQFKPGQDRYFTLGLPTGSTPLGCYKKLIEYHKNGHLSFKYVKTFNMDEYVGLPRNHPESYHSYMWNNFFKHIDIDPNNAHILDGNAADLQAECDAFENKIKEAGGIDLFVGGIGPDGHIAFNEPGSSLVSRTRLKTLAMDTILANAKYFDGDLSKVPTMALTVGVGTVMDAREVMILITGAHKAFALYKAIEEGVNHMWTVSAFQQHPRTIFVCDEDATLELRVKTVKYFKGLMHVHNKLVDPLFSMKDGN
UniProt Q9UBQ7: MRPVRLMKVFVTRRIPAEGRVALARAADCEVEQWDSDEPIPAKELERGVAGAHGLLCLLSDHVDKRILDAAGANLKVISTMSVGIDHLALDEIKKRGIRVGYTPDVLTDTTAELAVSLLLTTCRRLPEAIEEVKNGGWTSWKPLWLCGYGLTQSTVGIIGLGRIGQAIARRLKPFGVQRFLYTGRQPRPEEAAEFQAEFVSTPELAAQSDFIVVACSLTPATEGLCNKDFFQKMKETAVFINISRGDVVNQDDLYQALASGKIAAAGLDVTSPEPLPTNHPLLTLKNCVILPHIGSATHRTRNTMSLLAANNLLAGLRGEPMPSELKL
UniProt Q12849: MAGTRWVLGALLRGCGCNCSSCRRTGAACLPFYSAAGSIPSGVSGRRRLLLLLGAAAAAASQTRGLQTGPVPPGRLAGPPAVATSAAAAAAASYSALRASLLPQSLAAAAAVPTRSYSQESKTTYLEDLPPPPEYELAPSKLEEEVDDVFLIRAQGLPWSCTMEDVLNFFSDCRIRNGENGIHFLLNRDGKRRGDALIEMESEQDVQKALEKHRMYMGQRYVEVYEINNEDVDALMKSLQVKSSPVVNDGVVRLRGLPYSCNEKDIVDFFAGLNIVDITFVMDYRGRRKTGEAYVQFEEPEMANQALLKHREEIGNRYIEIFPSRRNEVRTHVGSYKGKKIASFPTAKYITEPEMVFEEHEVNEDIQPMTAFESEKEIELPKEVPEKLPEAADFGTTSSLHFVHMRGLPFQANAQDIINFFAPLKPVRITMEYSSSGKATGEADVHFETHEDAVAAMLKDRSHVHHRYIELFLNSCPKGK
UniProt Q8IW92: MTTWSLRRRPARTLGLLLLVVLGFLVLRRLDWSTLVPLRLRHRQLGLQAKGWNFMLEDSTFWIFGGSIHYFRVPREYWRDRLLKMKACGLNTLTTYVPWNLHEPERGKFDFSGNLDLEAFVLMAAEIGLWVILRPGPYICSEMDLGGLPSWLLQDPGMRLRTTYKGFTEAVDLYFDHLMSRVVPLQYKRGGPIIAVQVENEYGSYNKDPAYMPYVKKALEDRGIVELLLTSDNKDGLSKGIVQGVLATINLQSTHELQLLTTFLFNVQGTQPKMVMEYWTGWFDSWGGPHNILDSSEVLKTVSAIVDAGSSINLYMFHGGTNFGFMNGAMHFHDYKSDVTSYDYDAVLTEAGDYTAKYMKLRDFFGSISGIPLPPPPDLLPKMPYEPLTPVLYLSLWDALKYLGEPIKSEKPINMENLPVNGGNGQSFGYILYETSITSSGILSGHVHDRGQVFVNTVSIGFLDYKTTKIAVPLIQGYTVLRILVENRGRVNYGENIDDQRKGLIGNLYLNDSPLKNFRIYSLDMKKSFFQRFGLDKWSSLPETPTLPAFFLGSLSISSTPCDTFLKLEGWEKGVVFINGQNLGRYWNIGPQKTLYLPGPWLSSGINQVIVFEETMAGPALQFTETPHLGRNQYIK
UniProt Q08379: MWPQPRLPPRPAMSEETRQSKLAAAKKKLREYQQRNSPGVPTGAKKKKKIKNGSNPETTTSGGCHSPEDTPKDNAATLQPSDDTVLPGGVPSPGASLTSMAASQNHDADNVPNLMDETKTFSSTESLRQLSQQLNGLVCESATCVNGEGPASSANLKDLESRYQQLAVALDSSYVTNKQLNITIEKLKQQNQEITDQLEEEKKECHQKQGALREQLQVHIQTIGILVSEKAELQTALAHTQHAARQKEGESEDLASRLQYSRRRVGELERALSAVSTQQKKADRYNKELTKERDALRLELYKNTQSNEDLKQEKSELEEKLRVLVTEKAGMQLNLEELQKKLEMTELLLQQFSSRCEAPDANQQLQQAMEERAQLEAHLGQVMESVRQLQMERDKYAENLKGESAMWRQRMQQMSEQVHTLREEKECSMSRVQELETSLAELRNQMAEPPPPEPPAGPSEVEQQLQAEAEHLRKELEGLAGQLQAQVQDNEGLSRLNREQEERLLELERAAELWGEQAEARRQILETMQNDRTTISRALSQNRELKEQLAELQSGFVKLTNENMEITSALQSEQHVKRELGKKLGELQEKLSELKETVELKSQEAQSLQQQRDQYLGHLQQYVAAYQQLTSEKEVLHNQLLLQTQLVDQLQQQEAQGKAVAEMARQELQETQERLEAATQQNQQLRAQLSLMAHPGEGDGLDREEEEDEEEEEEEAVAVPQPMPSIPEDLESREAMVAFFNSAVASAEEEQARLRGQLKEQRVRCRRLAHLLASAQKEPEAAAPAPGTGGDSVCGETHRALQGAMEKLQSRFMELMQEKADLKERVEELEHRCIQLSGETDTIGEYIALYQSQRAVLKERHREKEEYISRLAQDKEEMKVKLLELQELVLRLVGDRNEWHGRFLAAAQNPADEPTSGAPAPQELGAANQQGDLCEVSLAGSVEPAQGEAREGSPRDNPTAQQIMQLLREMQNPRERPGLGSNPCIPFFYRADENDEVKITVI
UniProt P17174: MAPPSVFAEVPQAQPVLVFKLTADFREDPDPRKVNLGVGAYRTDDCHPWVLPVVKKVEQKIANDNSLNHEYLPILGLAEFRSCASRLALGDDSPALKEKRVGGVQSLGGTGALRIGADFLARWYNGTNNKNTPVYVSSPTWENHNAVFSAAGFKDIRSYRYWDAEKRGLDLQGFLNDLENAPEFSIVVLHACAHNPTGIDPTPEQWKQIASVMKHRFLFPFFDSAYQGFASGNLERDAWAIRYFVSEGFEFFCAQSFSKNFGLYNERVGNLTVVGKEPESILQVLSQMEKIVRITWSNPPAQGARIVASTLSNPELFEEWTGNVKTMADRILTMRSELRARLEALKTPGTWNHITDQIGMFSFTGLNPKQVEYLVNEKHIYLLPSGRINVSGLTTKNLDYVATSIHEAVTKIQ
UniProt P17900: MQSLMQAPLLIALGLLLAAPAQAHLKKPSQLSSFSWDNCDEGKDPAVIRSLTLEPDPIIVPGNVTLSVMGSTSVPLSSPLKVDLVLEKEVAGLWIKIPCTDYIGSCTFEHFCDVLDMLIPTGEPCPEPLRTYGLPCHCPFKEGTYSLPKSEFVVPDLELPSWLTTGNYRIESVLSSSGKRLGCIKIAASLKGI

The other results are listed elsewhere or left out.

Compound in the assay: CS(=O)(=O)c1ccc(-c2cnc(N)c(C(=O)Nc3ccccc3)n2)cc1
Kind of assay: log2 fold change, soluble protein after heating vs DMSO (PISA); higher = thermal stabilisation; K562 cells, 10 uM, 30 min; active = over 0.2 and 3.5 SD of the protein, either way, in both replicates (recomputed). The method in brief: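 Values are thermal stability changes relative to control samples and are taken from duplicates. They are stated as log2 fold changes. Before quantification by TMTpro 16plex LC-MS/MS with equalised channel sums, K562 cells at 2×10^6 cells/mL were treated with 10 μM compound for 30 min, heated in aliquots for 3 min across 48°C-58°C, pooled, extracted in PBS with 0.5% NP-40 at 4°C, and centrifuged at 21,000xg for 90 min to give the soluble supernatant.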
GMPPB isoform 2 (UniProt Q9Y5P6): the log2 fold change is inactive: 0.007.
As for GK (UniProt P32189), the log2 fold change is inactive: 0.029.
The figure for GRN (UniProt P28799) is inactive: -0.033; for GRB2 (UniProt P62993) it is inactive: -0.047.
The figure for GINS4 (UniProt Q9BRT9) is inactive: -0.029; for GRAP2 (UniProt O75791) it is inactive: -0.047; for GPD1L (UniProt Q8N335) it is inactive: -0.054.
Take GNA13 (UniProt Q14344): the log2 fold change was inactive: 0.027.
In the case of GOSR1 (UniProt O95249) it was inactive: -0.008.
In the case of GPATCH8 (UniProt Q9UKJ3) it was inactive: -0.015; in that of GPALPP1 (UniProt Q8IXQ4), inactive: 0.015; in that of GPD2 (UniProt P43304), inactive: 0.023.
The figure for GPRIN1 (UniProt Q7Z2K8) is inactive: 0.011; for GPN3 isoform 2 (UniProt Q9UHW5) it is inactive: -0.062; for GNPDA2 (UniProt Q8TDQ7) it is inactive: 0.016.
As to GMPR2 isoform 2 (UniProt Q9P2T1), the log2 fold change is inactive: 0.018.
With GNE isoform 2 (UniProt Q9Y223), the log2 fold change was inactive: 0.081.
In the case of GPAA1 (UniProt O43292) it was inactive: 0.02; in that of GPR107 (UniProt Q5VW38), inactive: -0.023.
In the case of GORASP2 isoform 3 (UniProt Q9H8Y8) it was inactive: 0.017; in that of GOLIM4 (UniProt O00461), inactive: 0.079.
In the case of GPN1 isoform 5 (UniProt Q9HCN4) it was inactive: 0.034; in that of GOLT1B (UniProt Q9Y3E0), inactive: -0.041; in that of GRWD1 (UniProt Q9BQ67), inactive: -0.024.
On to GRHPR (UniProt Q9UBQ7), for which the log2 fold change is inactive: 0.025.
In the case of GLG1 isoform 2 (UniProt Q92896), the log2 fold change is inactive: 0.013.
The figure for GRSF1 (UniProt Q12849) is inactive: -0.039; for GPHN isoform 2 (UniProt Q9NQX3) it is inactive: 0.002; for GLOD4 isoform 2 (UniProt Q9HC38) it is inactive: 0.06.
The figure for GLB1L2 (UniProt Q8IW92) is inactive: 0.05; for GIPC1 (UniProt O14908) it is inactive: 0.024; for GOLGA2 (UniProt Q08379) it is inactive: -0.037.
The figure for GINS3 (UniProt Q9BRX5) is inactive: -0.008; for GOLGA5 (UniProt Q8TBA6) it is inactive: 0.027.
As to GOT1 (UniProt P17174), the log2 fold change was inactive: 0.005.
In the case of GM2A (UniProt P17900) it was inactive: 0.01.
Consider GMFG (UniProt O60234), for which the log2 fold change is inactive: 0.005.
In the case of GNAQ (UniProt P50148) it was inactive: 0.028.
Regarding GPATCH11 (UniProt Q8N954), the log2 fold change is inactive: -0.016.
